The source of these data is article PMC9584352, “Conserved Pib2 regions have distinct roles in TORC1 regulation at the vacuole” (Journal of Cell Science, 2022).

Chains of the proteins cited; added tags and fusions are not shown. Residues count along the entry.
UniProt Q15075, residues 1347-1411: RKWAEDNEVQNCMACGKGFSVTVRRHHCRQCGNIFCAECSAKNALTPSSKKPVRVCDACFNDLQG

Test in all cases: SEC-MALS; Superdex 75 10/300 in 20 mM Tris-HCl pH 7.4, 150 mM NaCl, 1.93 mM β-mercaptoethanol, room temperature; 500 µl of each protein loaded at 50 or 100 µM as indicated; detectors at 25°C; both purified
(In general: SEC sorts molecules by how far they enter the pores of the column.)

The target of one assay is EEA1 1347–1411 (UniProt Q15075).
For assay [1], the target named is Pib2 437–542 (S. cerevisiae) (UniProt P53191).
Assay [2] concerns the target Pib2 419–625 (S. cerevisiae) (UniProt P53191).
In assay [3] the target is Pib2 442–625 (S. cerevisiae) (UniProt P53191).

Results are given in words; binding and its absence hold for the method and conditions named.

On to “EEA1 1347–1411 (from UniProt Q15075 1347-1411) (domain or fragment)”, for which the binding entry with EEA1 1347–1411 is given as “no binding (tested: 50 or 100 µM loaded, as indicated)”.

B1: Pib2 437–542 (domain or fragment, UniProt P53191 437-542)
chain: NSARVNPPTKDHWIPDSKRNSCRYCHKPFTLWERKHHCRHCGDIFCQDHLRHWLYLDSQANFIMINELNNGGINGGGTLCKICDDCLVEYENLSTTNHNANTNEDN
Regarding B1, in assay [1], the binding entry is “no binding (tested: 50 or 100 µM loaded, as indicated)”.

B2: Pib2 419–625 (domain or fragment, UniProt P53191 419-625)
chain: NSIPNSDRINLIPTISNRNSARVNPPTKDHWIPDSKRNSCRYCHKPFTLWERKHHCRHCGDIFCQDHLRHWLYLDSQANFIMINELNNGGINGGGTLCKICDDCLVEYENLSTTNHNANTNEDNINVEEGEDDDNDNRKKLRNYYKNRQMNALFRPKKGGSSQEHATVDRDTTTPIQVKSNDEEADNENTGGEQEEGNDVLGSVIGS
Regarding B2, in assay [2], the binding result is recorded as “no binding (tested: 50 or 100 µM loaded, as indicated)”.

B3: Pib2 442–625 (domain or fragment, UniProt P53191 442-625)
chain: NPPTKDHWIPDSKRNSCRYCHKPFTLWERKHHCRHCGDIFCQDHLRHWLYLDSQANFIMINELNNGGINGGGTLCKICDDCLVEYENLSTTNHNANTNEDNINVEEGEDDDNDNRKKLRNYYKNRQMNALFRPKKGGSSQEHATVDRDTTTPIQVKSNDEEADNENTGGEQEEGNDVLGSVIGS
In the case of B3, the binding entry in assay [3] was “no binding (tested: 50 or 100 µM loaded, as indicated)”.
